Data from article doi:10.1101/2024.10.25.620210.

T1: stλP8 (cTP8-2xStrep-HA-TurboID-A10 linker-PAP8) (Arabidopsis thaliana) (UniProt Q9XI19)
T1 sequence: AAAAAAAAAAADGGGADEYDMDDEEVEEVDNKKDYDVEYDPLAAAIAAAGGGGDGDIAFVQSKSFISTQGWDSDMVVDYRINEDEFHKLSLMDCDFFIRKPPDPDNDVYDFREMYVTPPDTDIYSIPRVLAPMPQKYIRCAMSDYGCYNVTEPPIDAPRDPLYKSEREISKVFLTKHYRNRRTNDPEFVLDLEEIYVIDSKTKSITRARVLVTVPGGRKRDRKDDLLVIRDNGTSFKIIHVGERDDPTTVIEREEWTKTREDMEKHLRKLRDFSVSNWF

T2: sP8 (cTP8-2xStrep-PAP8) (Arabidopsis thaliana) (UniProt Q9XI19)
T2 sequence: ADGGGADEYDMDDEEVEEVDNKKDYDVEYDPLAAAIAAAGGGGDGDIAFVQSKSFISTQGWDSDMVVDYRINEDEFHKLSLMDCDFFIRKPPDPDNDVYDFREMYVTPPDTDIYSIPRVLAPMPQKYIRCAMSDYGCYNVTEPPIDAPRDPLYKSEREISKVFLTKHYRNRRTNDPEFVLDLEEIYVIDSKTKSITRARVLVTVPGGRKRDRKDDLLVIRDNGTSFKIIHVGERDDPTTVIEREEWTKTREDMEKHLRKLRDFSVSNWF

B1: PEP core subunit β″ of Arabidopsis thaliana (protein, UniProt P56764 1-1376)
chain: MAERANLVFHNKVIDGTAIKRLISRLIDHFGMAYTSHILDQVKTLGFQQATATSISLGIDDLLTIPSKGWLVQDAEQQSWILEKHHHYGNVHAVEKLRQSIEIWYATSEYLRQEMNPNFRMTDPFNPVHMMSFSGARGNASQVHQLVGMRGLMSDPQGQMIDLPIQSNLREGLSLTEYIISCYGARKGVVDTAVRTSDAGYLTRRLVEVVQHIVVRRTDCGTIRGISVSPRNKNRMMSERIFIQTLIGRVLADDIYIGSRCVAFRNQDLGIGLVNRLITFGTQSISIRTPFTCRSTSWICRLCYGRSPTHGDLVELGEAVGIIAGQSIGEPGTQLTLRTFHTGGVFTGGTAEHVRAPYNGKIKFNEDLVHPTRTRHGHPAFLCYIDLSVIIESEDIIHSVTIPPKSFLLVQNDQYVESEQVIAEIREGTYTFHFKERVRKYIYSDSEGEMHWSTDVSHAPEFTYSNVHLLPKTSHLWILSGGSCGSSLIRFSIHKDQDQMNIPFLSAERKSISSLSVNNDQVSQKFFSSDFADPKKLGIYDYSELNGNLGTSHYNLIYSAIFHENSDLLAKRRRNRFLIPFQSIQEQEKEFIPQSGISVEIPINGIFRRNSIFAFFDDPRYRRKSSGILKYGTLKADSIIQKEDMIEYRGVQKIKTKYEMKVDRFFFIPEEVHILPESSAIMVQNYSIIGVDTRLTLNIRSQVGGLIRVEKKKKRIELKIFSGDIHFPDKTDKISRHSGILIPPGRGKKNSKESKKFKNWIYVQRITPTKKKFFVLVRPVATYEIADSINLATLFPQDLFREKDNIQLRVFNYILYGNGKPTRGISDTSIQLVRTCLVLNWDKNSSLEEVRAFFVEVSTKGLIQDFIRIGLVKSHISYIRKRNNSPDSGLISADHMNPFYSISPKSGILQQSLRQNHGTIRMFLNRNKESQSLLILSSSNCFRMGPFNHVKHHNVINQSIKKNTLITIKNSSGPLGTATPISNFYSFLPLLTYNQISLIKYFQLDNLKYIFQKINSYLIDENGIILNLDPYSNVVLNPFKLNWYFLHQNYHHNYCEETSTIISLGQFFCENVCIAKKEPHLKSGQVLIVQRDSAVIRSAKPYLATPGAKVHGHYSEILYEGDTLVTFIYEKSRSGDITQGLPKVEQVLEVRSIDSISLNLEKRIKGWNKCITRILGIPWGFLIGAELTIVQSRISLVNKIQKVYRSQGVQIHNRHIEIIVRQITSKVLVSEEGMSNVFLPGELIGLLRAERTGRALEEAICYRAVLLGITRASLNTQSFISEASFQETARVLAKAALRGRIDWLKGLKENVVLGGVIPAGTGFNKGLVHCSRQHTNIILEKKTKNLALFEGDMRDILFYHREFCDSSISKSDFSRI
B2: PEP core subunit β of Arabidopsis thaliana (protein, UniProt P50546 1-1072)
chain: MLGDEKEGTSAIPGFNQIQFEGFYRFIDQGLIEELAKFPKIEDIDHEIEFQLFVETYQLVEPLIKERDAVYESLTYSSELYVSAGLIWKTSRNMQEQRIFIGNIPLMNSLGTSIVNGIYRIVINQILQSPGIYYQSELDHNGISVYTGTIISDWGGRLELEIDKKARIWARVSRKQKISILVLSSAMGLNLREILENVCYPEIFLSFLTDKEKKKIGSKENAILEFYQQFSCVGGDPIFSESLCKELQKKFFHQRCELGRIGRRNINWRLNLNIPQNNIFLLPRDVLAAADHLIGMKFGMGTLDDMNHLKNKRIRSVADLLQDQLGLALARLENVVKGTISGAIRHKLIPTPQNLVTSTPLTTTYESFFGLHPLSQVLDRTNPLTQIVHGRKLSYLGPGGLTGRTANFRIRDIHPSHYGRICPIDTSEGINVGLIGSLSIHARIGDWGSLESPFYELFEKSKKARIRMLFLSPSQDEYYMIAAGNSLALNRGIQEEQAVPARYRQEFLTIAWEEVHLRSIFPFQYFSIGASLIPFIEHNDANRALMSSNMQRQAVPLSRSEKCIVGTGLERQVALDSGVPAIAEHEGKILYTDTEKIVFSGNGDTLSIPLIMYQRSNKNTCMHQKPQVRRGKCIKKGQILADGAATVGGELALGKNILVAYMPWEGYNFEDAVLISECLVYGDIYTSFHIRKYEIQTHVTTQGPERITKEIPHLEGRLLRNLDKNGIVMLGSWVETGDILVGKLTPQVAKESSYAPEDRLLRAILGIQVSTSKETCLKLPIGGRGRVIDVRWVQKKGGSSYNPEIIRVYISQKREIKVGDKVAGRHGNKGIISKILPRQDMPYLQDGRPVDMVFNPLGVPSRMNVGQIFECSLGLAGSLLDRHYRIAPFDERYEQEASRKLVFSELYEASKQTANPWVFEPEYPGKSRIFDGRTGDPFEQPVIIGKPYILKLIHQVDDKIHGRSSGHYALVTQQPLRGRSKQGGQRVGEMEVWALEGFGVAHILQEMLTYKSDHIRARQEVLGTTIIGGTIPKPEDAPESFRLLVRELRSLALELNHFLVSEKNFQINRKEV
B3: PAP2 of Arabidopsis thaliana (protein, UniProt Q9S7Q2 67-862)
chain: VEKGKYSYDVESLINKLSSLPPRGSIARCLDIFKNKLSLNDFALVFKEFAGRGDWQRSLRLFKYMQRQIWCKPNEHIYTIMISLLGREGLLDKCLEVFDEMPSQGVSRSVFSYTALINAYGRNGRYETSLELLDRMKNEKISPSILTYNTVINACARGGLDWEGLLGLFAEMRHEGIQPDIVTYNTLLSACAIRGLGDEAEMVFRTMNDGGIVPDLTTYSHLVETFGKLRRLEKVCDLLGEMASGGSLPDITSYNVLLEAYAKSGSIKEAMGVFHQMQAAGCTPNANTYSVLLNLFGQSGRYDDVRQLFLEMKSSNTDPDAATYNILIEVFGEGGYFKEVVTLFHDMVEENIEPDMETYEGIIFACGKGGLHEDARKILQYMTANDIVPSSKAYTGVIEAFGQAALYEEALVAFNTMHEVGSNPSIETFHSLLYSFARGGLVKESEAILSRLVDSGIPRNRDTFNAQIEAYKQGGKFEEAVKTYVDMEKSRCDPDERTLEAVLSVYSFARLVDECREQFEEMKASDILPSIMCYCMMLAVYGKTERWDDVNELLEEMLSNRVSNIHQVIGQMIKGDYDDDSNWQIVEYVLDKLNSEGCGLGIRFYNALLDALWWLGQKERAARVLNEATKRGLFPELFRKNKLVWSVDVHRMSEGGMYTALSVWLNDINDMLLKGDLPQLAVVVSVRGQLEKSSAARESPIAKAAFSFLQDHVSSSFSFTGWNGGRIMCQRSQLKQLLSTKEPTSEESENKNLVALANSPIFAAGTRASTSSDTNHSGNPTQRRTRTKKELAGSTA
B4: PEP core subunit β′ of Arabidopsis thaliana (protein, UniProt P56763 1-680)
chain: MIDRYKHQQLRIGLVSPQQISAWATKIIPNGEIVGEVTKPYTFHYKTNKPEKDGLFCERIFGPIKSGICACGNYRVIGDEKEDPKFCEQCGVEFVDSRIRRYQMGYIKLTCPVTHVWYLKRLPSYIANLLDKPLKELEGLVYCDFSFARPITKKPTFLRLRGSFEYEIQSWKYSIPLFFTTQGFDIFRNREISTGAGAIREQLADLDLRIIIENSLVEWKQLGEEGPTGNEWEDRKIVRRKDFLVRRMELAKHFIRTNIEPEWMVLCLLPVLPPELRPIIQIEGGKLMSSDINELYRRVIYRNNTLTDLLTTSRSTPGELVMCQEKLVQEAVDTLLDNGIRGQPMRDGHNKVYKSFSDVIEGKEGRFRETLLGKRVDYSGRSVIVVGPSLSLHRCGLPREIAIELFQTFVIRGLIRQHLASNIGVAKSQIREKKPIVWEILQEVMQGHPVLLNRAPTLHRLGIQSFQPILVEGRTICLHPLVCKGFNADFDGDQMAVHVPLSLEAQAEARLLMFSHMNLLSPAIGDPISVPTQDMLIGLYVLTSGTRRGICANRYNPCNRKNYQNERIYETNYKYTKEPFFCNSYDAIGAYRQKKINLDSPLWLRWQLDQRVIASREVPIEVHYESFGNYHEIYAHYLIVRSVKKENFCIYIRTTVGHISFYREIEEAIQGFSQACSYDT

molecular target: stP8 (cTP8-2xStrep-HA-TurboID-PAP8) (Arabidopsis thaliana) (UniProt Q9XI19); assay: proximity labelling

binding | Binder
binds | B1
binds | B2
binds | B3
binds | B4

molecular target: T1, stλP8 (cTP8-2xStrep-HA-TurboID-A10 linker-PAP8) (Arabidopsis thaliana); assay: proximity labelling

binding | Binder
binds | B1
binds | B2
binds | B3
binds | B4

molecular target: T2, sP8 (cTP8-2xStrep-PAP8) (Arabidopsis thaliana); assay: affinity purification with mass spectrometry

binding | Binder
binds | B1
binds | B2
binds | B3
binds | B4

molecular target: stP8 (cTP8-2xStrep-HA-TurboID-PAP8) (Arabidopsis thaliana) (UniProt Q9XI19); assay: affinity purification with mass spectrometry

binding | Binder
binds | B1
binds | B2
binds | B3
binds | B4

molecular target: T1, stλP8 (cTP8-2xStrep-HA-TurboID-A10 linker-PAP8) (Arabidopsis thaliana); assay: affinity purification with mass spectrometry

binding | Binder
binds | B1
binds | B2
binds | B3
binds | B4

These are yes or no findings as the source states them, for the method shown. Binding seen in cells or lysates may run through a third protein. These calls come from enrichment with a bait or labelling near it, and not all partners need be listed. For some assays here: Sequences can lack the tags named with a protein.
